The target in the experiment is Halo-FLAG-SETD2CΔSRI (human) (UniProt Q9BYW2). In words: co-IP; Halo affinity purification of a Halo-tagged bait expressed in 293T (Magne HaloTag beads, AcTEV elution); endogenous partner detected by western blot; lysate with or without RNase where stated. In general terms: Immunoblotting shows a protein as a band on a membrane.

Protein sequences, listed by entry. Tags and fused reporters are not part of them. Lines headed by an entry give the natural chain unless they say otherwise; changes in a name come on top.
UniProt Q9BYW2: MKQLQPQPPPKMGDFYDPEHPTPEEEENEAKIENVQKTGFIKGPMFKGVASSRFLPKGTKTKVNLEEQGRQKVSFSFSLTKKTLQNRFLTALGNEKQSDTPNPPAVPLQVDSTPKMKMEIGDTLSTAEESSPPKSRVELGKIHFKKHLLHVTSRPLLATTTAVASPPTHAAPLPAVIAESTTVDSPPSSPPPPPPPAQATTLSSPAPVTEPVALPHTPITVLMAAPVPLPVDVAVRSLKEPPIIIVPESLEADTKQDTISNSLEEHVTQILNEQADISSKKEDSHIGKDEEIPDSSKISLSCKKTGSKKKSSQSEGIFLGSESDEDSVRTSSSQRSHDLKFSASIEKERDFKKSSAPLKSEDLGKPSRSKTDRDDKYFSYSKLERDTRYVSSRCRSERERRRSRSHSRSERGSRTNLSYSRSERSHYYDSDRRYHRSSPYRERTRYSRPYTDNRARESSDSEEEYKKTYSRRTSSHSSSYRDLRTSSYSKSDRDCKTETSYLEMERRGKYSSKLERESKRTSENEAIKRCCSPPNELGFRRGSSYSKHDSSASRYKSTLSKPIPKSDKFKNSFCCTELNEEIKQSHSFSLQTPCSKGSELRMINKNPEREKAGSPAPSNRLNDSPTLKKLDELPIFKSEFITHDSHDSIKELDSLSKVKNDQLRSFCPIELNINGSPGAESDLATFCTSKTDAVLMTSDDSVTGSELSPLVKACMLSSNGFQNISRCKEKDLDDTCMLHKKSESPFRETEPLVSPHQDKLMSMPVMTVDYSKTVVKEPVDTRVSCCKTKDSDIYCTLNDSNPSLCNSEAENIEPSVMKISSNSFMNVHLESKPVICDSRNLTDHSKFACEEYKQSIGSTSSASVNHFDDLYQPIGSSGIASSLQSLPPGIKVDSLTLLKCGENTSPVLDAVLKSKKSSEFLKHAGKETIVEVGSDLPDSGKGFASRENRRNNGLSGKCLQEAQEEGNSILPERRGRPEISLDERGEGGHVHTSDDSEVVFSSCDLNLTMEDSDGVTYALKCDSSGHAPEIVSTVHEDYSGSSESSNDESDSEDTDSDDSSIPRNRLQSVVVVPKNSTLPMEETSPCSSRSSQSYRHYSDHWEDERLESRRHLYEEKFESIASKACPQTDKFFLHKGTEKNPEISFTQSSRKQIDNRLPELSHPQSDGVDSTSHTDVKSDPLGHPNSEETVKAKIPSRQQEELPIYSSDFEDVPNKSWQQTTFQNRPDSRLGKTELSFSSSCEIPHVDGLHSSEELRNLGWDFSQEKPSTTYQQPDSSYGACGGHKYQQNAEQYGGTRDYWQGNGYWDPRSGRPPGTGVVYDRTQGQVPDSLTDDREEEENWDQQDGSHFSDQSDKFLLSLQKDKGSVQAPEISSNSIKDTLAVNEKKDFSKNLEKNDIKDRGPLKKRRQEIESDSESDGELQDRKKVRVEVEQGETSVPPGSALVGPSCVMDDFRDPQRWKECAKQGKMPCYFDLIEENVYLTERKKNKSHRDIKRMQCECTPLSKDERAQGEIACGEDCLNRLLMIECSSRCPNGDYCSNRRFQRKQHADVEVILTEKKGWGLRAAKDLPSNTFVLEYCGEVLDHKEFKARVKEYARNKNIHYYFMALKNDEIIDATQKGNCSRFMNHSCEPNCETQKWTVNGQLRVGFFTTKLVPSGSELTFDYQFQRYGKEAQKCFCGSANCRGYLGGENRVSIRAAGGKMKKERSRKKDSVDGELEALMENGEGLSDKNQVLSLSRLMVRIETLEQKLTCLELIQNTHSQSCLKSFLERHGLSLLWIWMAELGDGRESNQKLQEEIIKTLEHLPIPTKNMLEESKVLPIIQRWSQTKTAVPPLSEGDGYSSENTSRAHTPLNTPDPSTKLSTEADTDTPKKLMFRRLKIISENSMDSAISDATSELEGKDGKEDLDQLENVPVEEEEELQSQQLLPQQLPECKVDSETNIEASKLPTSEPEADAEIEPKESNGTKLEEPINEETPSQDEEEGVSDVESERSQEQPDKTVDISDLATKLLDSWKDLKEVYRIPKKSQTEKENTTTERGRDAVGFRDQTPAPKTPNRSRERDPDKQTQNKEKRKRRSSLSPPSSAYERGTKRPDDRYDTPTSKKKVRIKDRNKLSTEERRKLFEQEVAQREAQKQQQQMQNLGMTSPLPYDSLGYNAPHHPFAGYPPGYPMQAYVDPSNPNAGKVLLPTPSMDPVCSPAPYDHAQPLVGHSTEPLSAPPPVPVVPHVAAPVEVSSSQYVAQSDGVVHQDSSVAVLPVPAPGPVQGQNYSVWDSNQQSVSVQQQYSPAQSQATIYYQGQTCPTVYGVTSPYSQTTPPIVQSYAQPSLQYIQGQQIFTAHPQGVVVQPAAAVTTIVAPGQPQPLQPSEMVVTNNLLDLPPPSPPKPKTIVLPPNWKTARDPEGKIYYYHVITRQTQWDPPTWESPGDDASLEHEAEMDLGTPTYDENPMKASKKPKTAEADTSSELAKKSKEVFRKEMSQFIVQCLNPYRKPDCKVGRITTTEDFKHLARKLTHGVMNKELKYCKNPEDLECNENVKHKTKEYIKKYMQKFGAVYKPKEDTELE

These are yes or no findings as the source states them, for the method shown. In cells and extracts the contact can be indirect. Binding can be weak; no strength is given.

B1: hnRNP L (endogenous) (protein, UniProt P14866 1-589)
chain: MSRRLLPRAEKRRRRLEQRQQPDEQRRRSGAMVKMAAAGGGGGGGRYYGGGSEGGRAPKRLKTDNAGDQHGGGGGGGGGAGAAGGGGGGENYDDPHKTPASPVVHIRGLIDGVVEADLVEALQEFGPISYVVVMPKKRQALVEFEDVLGACNAVNYAADNQIYIAGHPAFVNYSTSQKISRPGDSDDSRSVNSVLLFTILNPIYSITTDVLYTICNPCGPVQRIVIFRKNGVQAMVEFDSVQSAQRAKASLNGADIYSGCCTLKIEYAKPTRLNVFKNDQDTWDYTNPNLSGQGDPGSNPNKRQRQPPLLGDHPAEYGGPHGGYHSHYHDEGYGPPPPHYEGRRMGPPVGGHRRGPSRYGPQYGHPPPPPPPPEYGPHADSPVLMVYGLDQSKMNCDRVFNVFCLYGNVEKVKFMKSKPGAAMVEMADGYAVDRAITHLNNNFMFGQKLNVCVSKQPAIMPGQSYGLEDGSCSYKDFSESRNNRFSTPEQAAKNRIQHPSNVLHFFNAPLEVTEENFFEICDELGVKRPSSVKVFSGKSERSSSGLLEWESKSDALETLGFLNHYQMKNPNGPYPYTLKLCFSTAQHAS
Regarding B1, the binding entry is “binds”.

The values are drawn from paper PMC7933334, “The methyltransferase SETD2 couples transcription and splicing by engaging mRNA processing factors through its SHI domain” (Nature Communications, 2021).
